In US10981926B2 (Janssen Pharmaceutica NV, priority 2016, dated 2021):
At least one structure is not confirmed: it was looked up by name or label, or the drawing left a doubt.

Tested on: rGABA-gated Cl− channel
Assay: GABA-Gated Cl Channel Antagonist Radioligand Binding Assay
Set-up: species or system rat
Conditions: 10 μM single point, [35S]-TBPS, cerebral cortex membrane homogenates
Description: GABA-gated C1 Chanel assays were performed at CEREP according to the following method. Membrane homogenates of cerebral cortex (120 μg protein) were incubated for 120 min at 22° C. with 3 nM […] in the absence or presence of the test compound in a buffer containing 50 mM Na2HPO4/KH2PO4 (pH 7.4) and 500 mM NaCl. Nonspecific binding was determined in the presence of 20 μM picrotoxinin. Following incubation, the samples were filtered rapidly under vacuum through glass fiber filters (GF/B, Packard) presoaked with 0.3% PEI and rinsed several times with ice-cold 50 mM Tris-HCl using a 96-sample cell harvester (Unifilter, Packard). The filters were dried then counted for radioactivity in a scintillation counter (Topcount, Packard) using a scintillation cocktail (Microscint 0, Packard). The results are expressed as a percent inhibition of the control radio ligand specific binding. The standard reference compound is picrotoxinin, which was tested in each experiment at several concentrations to obtain a competition curve from which its IC50 was calculated. In this assay, the following representative compounds disclosed herein had recorded activities at a 10 μM single point concentration in the GABA-gated Cl— Channel Binding Assay.

COc1cc(N2C(=O)C3(CCC3)N(c3ccc(OC4CCN(C)CC4)nc3)C2=S)cnc1C#N [Cpd 25]
rGABA-gated Cl− channel % inh @10 μM: 1.4%
